Reference: paper PMC12501846

The chains behind the UniProt entries cited, without tags or fusion partners. Where a name states a change or a piece, a line headed by the entry shows the natural chain unless it says otherwise.
UniProt P35222: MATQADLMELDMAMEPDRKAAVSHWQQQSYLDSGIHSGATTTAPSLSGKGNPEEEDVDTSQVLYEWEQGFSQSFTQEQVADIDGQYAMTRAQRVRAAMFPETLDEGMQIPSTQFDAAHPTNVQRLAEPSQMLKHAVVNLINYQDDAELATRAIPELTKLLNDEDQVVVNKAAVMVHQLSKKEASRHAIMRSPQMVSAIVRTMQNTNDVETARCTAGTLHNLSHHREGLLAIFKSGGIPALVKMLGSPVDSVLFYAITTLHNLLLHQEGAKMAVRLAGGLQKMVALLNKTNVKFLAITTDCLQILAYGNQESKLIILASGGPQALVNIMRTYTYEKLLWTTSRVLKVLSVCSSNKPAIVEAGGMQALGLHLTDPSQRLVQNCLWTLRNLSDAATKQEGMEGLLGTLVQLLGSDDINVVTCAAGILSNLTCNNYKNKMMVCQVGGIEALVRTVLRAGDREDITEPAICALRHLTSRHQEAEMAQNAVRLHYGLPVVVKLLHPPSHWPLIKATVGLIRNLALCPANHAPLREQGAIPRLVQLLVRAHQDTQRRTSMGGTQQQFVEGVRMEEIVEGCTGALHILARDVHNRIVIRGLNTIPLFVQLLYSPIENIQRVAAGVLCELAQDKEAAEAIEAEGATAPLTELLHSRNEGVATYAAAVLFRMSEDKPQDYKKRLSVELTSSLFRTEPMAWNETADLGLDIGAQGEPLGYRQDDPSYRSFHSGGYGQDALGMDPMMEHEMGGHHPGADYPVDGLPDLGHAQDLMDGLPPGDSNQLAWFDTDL

Assays:
[1] = target: T1, Nanog fused to NanoLuc at its C-terminus (UniProt Q80Z64); experiment: FRET or BRET; NanoBRET in transfected HEK293T cells; NanoLuc-fused Nanog as donor, HaloTag-Ctnnb1 with NanoBRET 618 ligand as acceptor; 5 h at 37 °C in Opti-MEM
T1 sequence: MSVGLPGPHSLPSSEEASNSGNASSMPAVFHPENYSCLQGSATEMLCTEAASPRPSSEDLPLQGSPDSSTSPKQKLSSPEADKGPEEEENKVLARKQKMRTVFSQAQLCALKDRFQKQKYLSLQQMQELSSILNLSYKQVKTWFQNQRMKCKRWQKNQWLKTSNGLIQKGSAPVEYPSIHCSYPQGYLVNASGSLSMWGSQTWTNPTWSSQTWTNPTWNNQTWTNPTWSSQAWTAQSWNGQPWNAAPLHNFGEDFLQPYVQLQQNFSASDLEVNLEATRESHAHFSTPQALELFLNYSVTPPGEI

[2] = target: T2, Nanog fused to NanoLuc at its N-terminus (UniProt Q80Z64); experiment: as above
T2 sequence: T1 sequence

[3] = target: T3, Nanog, endogenous (mouse (endogenous in ESCs and EpiSCs)) (UniProt Q80Z64); experiment: co-IP; ESCs ectopically expressing Ctnnb1 S33Y, K49R or K49Q, followed by IP; binding to Nanog or Tcf3
T3 sequence: T1 sequence

[4] = target: T4, Tcf3, endogenous (mouse (endogenous in ESCs)) (UniProt Q9Z1J1); experiment: as above
T4 sequence: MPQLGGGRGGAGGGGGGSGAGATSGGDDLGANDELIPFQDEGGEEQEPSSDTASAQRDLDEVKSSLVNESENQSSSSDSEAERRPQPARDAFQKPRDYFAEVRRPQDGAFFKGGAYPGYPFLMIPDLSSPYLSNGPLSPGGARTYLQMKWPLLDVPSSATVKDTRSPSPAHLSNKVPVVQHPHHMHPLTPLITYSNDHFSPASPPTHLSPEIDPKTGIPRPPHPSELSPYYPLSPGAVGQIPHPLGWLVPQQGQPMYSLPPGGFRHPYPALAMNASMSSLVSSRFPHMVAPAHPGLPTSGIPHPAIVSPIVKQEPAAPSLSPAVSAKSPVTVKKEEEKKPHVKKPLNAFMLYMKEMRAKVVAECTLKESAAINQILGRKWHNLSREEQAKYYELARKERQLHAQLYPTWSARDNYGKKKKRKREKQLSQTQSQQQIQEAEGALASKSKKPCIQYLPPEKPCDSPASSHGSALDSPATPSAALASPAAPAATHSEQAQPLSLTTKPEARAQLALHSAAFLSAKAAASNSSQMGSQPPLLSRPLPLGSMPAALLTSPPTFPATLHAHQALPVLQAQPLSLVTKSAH

Substance | binding [1] | binding [2] | binding [3] | binding [4]
HaloTag-Ctnnb1 K49R (from UniProt P35222) | binds | binds | – | –
HA-Ctnnb1 S33Y K49R (deacetylation mimic) (from UniProt P35222) | – | – | binds | binds

Results are given in words; binding and its absence hold for the method and conditions named. Binding seen in cells or lysates may run through a third protein. A result given as binding can be weak or reduced; the word gives no strength. For some of these results: Sequences can lack the tags named with a protein.
